Drawing on publication doi:10.1101/2021.04.07.438830 (bioRxiv, 2021), this text covers binding for five molecules.

Sequences of proteins named here, by UniProt entry; tags and fusion partners are left off. Residues count along the entry.
UniProt Q9Y572: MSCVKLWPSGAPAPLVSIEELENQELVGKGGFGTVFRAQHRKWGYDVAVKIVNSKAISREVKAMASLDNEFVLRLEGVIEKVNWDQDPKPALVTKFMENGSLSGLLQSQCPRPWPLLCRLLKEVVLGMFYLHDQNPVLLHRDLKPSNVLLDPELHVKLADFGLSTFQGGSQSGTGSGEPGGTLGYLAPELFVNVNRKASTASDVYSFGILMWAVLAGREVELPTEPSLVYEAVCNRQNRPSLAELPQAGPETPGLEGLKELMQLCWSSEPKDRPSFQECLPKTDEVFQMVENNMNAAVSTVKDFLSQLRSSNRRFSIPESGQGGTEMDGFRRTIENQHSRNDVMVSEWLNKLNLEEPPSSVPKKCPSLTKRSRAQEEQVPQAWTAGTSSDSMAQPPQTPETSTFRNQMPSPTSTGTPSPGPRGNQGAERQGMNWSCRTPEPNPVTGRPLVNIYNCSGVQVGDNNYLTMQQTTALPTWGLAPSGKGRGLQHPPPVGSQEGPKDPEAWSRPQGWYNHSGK
UniProt P19838, residues 1-433: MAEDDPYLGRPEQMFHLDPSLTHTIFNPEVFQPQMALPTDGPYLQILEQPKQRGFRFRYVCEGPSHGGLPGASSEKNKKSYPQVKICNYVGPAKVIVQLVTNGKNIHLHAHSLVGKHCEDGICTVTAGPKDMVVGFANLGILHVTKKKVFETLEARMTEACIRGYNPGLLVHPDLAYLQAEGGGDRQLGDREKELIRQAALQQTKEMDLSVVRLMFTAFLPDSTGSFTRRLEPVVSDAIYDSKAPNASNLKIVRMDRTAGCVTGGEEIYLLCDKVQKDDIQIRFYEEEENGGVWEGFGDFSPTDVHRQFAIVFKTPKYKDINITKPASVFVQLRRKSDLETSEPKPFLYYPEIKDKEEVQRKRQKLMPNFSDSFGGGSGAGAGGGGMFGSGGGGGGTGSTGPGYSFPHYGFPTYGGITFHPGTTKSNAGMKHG
UniProt Q04206: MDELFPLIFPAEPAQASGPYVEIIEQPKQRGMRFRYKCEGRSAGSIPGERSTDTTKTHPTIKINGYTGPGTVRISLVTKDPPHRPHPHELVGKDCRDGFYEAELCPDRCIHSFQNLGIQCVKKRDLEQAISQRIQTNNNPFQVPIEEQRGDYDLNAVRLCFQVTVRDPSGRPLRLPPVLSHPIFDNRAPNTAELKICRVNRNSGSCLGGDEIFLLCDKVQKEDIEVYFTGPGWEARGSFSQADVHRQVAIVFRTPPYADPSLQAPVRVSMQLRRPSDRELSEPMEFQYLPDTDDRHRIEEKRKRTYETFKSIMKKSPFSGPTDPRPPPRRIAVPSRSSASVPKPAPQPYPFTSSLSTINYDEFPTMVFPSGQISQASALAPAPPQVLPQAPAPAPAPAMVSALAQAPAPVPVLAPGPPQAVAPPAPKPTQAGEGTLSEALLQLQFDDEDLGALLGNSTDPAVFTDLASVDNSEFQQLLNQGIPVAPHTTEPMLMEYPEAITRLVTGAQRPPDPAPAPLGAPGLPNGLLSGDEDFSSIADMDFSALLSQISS
UniProt P25445, residues 26-335: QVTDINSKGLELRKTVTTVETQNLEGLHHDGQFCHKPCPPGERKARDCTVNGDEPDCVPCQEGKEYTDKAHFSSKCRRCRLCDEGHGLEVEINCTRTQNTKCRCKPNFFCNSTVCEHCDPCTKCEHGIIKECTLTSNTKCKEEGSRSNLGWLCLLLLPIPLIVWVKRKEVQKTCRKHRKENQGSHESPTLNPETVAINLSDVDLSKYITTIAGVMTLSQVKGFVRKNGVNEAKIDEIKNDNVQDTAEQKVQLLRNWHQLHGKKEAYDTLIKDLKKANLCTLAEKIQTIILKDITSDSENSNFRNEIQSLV
UniProt Q13546: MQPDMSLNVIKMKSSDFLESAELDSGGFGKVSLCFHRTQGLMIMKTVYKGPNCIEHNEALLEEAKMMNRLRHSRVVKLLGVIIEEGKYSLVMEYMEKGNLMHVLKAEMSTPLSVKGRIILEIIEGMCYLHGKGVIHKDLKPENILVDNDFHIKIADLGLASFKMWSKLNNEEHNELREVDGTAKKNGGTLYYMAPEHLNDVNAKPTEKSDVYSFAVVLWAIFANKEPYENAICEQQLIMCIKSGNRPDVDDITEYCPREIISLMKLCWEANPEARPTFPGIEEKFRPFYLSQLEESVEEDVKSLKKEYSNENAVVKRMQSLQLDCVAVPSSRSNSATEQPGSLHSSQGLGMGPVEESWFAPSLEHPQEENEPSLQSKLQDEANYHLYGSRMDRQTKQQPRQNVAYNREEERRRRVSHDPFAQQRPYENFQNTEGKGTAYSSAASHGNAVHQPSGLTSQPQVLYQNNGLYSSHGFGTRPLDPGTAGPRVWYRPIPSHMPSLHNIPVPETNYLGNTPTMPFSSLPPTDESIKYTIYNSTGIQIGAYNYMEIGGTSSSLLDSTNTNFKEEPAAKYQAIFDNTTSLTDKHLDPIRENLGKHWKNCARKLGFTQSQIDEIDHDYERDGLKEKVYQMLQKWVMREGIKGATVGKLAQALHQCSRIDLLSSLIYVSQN

The target in one assay is T1, Flag-KPC2 (UniProt Q9BSL1).
T1 sequence: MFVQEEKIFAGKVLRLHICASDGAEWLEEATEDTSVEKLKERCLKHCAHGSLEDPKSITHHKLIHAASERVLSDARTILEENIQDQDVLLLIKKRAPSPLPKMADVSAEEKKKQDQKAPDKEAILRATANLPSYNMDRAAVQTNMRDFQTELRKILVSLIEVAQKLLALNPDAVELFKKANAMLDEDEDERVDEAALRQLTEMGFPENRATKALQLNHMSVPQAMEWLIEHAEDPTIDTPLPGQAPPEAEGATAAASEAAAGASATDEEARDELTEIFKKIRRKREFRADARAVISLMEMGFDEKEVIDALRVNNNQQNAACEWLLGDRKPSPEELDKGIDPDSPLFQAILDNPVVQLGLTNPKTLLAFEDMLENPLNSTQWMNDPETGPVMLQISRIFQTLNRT
The experiment in a line: co-IP.

In the next assay the target is RIP3-F2 (UniProt Q9Y572). The experiment in a line: split reporter.
Assay [1] addresses p50 (NFκB1), endogenous (human (endogenous in MDA-MB-231 or HEK293T)) (UniProt P19838). The experiment in a line: co-IP.
In a further assay the target is T2, Flag-KPC1 (UniProt Q5XPI4).
T2 sequence: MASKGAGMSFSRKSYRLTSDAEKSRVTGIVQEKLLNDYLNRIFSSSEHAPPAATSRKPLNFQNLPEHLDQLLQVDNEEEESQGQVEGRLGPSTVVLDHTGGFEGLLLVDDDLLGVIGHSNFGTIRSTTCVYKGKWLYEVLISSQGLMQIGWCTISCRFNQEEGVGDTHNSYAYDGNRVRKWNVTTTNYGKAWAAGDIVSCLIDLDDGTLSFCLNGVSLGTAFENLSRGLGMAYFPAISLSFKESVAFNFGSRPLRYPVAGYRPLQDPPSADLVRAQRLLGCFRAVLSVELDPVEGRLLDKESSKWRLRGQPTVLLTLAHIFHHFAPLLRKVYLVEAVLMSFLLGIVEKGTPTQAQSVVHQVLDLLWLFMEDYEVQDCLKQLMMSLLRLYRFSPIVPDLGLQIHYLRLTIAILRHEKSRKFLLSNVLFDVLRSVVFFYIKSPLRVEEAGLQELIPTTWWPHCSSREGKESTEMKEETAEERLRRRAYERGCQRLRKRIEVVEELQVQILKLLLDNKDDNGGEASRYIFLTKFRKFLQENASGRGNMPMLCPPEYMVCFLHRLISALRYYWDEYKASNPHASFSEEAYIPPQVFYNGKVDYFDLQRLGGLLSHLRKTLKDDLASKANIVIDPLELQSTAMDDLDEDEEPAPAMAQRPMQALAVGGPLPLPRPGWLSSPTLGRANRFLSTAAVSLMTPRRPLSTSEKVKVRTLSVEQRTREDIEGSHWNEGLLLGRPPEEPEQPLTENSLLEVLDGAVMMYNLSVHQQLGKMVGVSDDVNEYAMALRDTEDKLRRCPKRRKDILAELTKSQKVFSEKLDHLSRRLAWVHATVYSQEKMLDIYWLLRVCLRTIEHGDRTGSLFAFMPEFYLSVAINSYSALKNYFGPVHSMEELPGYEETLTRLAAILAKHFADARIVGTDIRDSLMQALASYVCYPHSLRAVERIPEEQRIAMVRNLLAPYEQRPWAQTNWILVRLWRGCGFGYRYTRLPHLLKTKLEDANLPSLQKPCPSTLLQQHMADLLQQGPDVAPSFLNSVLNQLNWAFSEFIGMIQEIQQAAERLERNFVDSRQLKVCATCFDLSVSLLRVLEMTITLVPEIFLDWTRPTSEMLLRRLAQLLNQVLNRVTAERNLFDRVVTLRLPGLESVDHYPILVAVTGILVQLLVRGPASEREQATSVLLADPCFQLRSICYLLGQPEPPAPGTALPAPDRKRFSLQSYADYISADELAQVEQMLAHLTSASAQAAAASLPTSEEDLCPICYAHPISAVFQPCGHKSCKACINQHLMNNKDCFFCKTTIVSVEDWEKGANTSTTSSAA
As to the kind of experiment: co-IP.

In the next assay the target is Flag-p65 (UniProt Q04206). As to the kind of experiment: co-IP.
The target in assay [2] is CD95 fused to the C-term region of Renilla luciferase (F2) (human) (UniProt P25445). As to the kind of experiment: split reporter.

These are yes or no findings as the source states them, for the method shown. Binding seen in cells or lysates may run through a third protein. Some results given as binding are weak or reduced against the parent protein; the word gives no strength. For part of these data: Where a sequence is shown, tags or fusion partners need not be part of it.

Turning to “p65-Renilla luciferase (domain F1) (from UniProt Q04206 1-551)”, the binding entry with Flag-KPC2 is “binds”. RIP1-F1 (from UniProt Q13546 1-671): in the assay with RIP3-F2, the binding entry is given as “binds”. Take “p65 (RelA), endogenous (from UniProt Q04206 1-551)”: the binding result in assay [1] is on record as “binds”.

B1: V5-KPC2 (protein, UniProt Q9BSL1 1-405)
chain: MFVQEEKIFAGKVLRLHICASDGAEWLEEATEDTSVEKLKERCLKHCAHGSLEDPKSITHHKLIHAASERVLSDARTILEENIQDQDVLLLIKKRAPSPLPKMADVSAEEKKKQDQKAPDKEAILRATANLPSYNMDRAAVQTNMRDFQTELRKILVSLIEVAQKLLALNPDAVELFKKANAMLDEDEDERVDEAALRQLTEMGFPENRATKALQLNHMSVPQAMEWLIEHAEDPTIDTPLPGQAPPEAEGATAAASEAAAGASATDEEARDELTEIFKKIRRKREFRADARAVISLMEMGFDEKEVIDALRVNNNQQNAACEWLLGDRKPSPEELDKGIDPDSPLFQAILDNPVVQLGLTNPKTLLAFEDMLENPLNSTQWMNDPETGPVMLQISRIFQTLNRT
Take B1: the binding result with Flag-KPC1 and in the assay with Flag-p65 was “binds” each time.

B2: KPC2 fused to the N-term part of Renilla luciferase (F1) (protein, UniProt Q9BSL1 1-405)
chain: MFVQEEKIFAGKVLRLHICASDGAEWLEEATEDTSVEKLKERCLKHCAHGSLEDPKSITHHKLIHAASERVLSDARTILEENIQDQDVLLLIKKRAPSPLPKMADVSAEEKKKQDQKAPDKEAILRATANLPSYNMDRAAVQTNMRDFQTELRKILVSLIEVAQKLLALNPDAVELFKKANAMLDEDEDERVDEAALRQLTEMGFPENRATKALQLNHMSVPQAMEWLIEHAEDPTIDTPLPGQAPPEAEGATAAASEAAAGASATDEEARDELTEIFKKIRRKREFRADARAVISLMEMGFDEKEVIDALRVNNNQQNAACEWLLGDRKPSPEELDKGIDPDSPLFQAILDNPVVQLGLTNPKTLLAFEDMLENPLNSTQWMNDPETGPVMLQISRIFQTLNRT
For B2, the binding result in assay [2] is “binds”.
